Laboratory results as given in patent US20260091080A1.
These are yes or no findings as the source states them, for the method shown. Binding seen in cells or lysates may run through a third protein. Some results given as binding are weak or reduced against the parent protein; the word gives no strength. Tags and fused reporters may be left off the sequences shown.

Experiments:
[1] = biological target: TDP-43 wild type (non-mutant), C-terminal V5 tag (pcDNA3.1/V5) (human) (UniProt Q13148); assay: co-immunoprecipitation after co-expression
[2] = biological target: TDP-43 wild type (non-mutant), C-terminal V5 tag (pcDNA3.1/V5) (human) (UniProt Q13148); assay: co-precipitation with expressed Fx

- binding [1]: binds
- binding [2]: binds
Binder: GDDRKQTIDNSQGAYQEAFDISKKEMQPTH (peptide, not shown: small tags and cut ends) [14-3-3θ-Fx-V5 (α-helix 6 (αF) of 14-3-3θ alone)]
